The values that follow come from US20230192853A1.

Chains of the proteins cited; added tags and fusions are not shown. Lines headed by an entry give the natural chain unless they say otherwise; changes in a name come on top.
UniProt P01732: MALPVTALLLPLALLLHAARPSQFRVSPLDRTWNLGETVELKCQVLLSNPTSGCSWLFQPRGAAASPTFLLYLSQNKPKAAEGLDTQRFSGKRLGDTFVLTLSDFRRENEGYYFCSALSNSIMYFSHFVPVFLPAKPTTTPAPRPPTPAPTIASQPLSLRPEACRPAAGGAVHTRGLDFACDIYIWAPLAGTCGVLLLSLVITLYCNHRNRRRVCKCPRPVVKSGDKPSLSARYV

No constants are given. Whether binding was seen depends on the method and setting. Some binding calls cover weakened binding; strength is not graded here. Sequences can lack the tags named with a protein.

For experiment [1], the target named is human CD8 on cells (HPBALL cells, TALL1 cells, CD8+ T cells of human whole blood and PBMCs) (human) (UniProt P01732). In words: FACS on HPBALL cells (FIG. 3).
Experiment [2] has the same target. The experiment in a line: FACS on huCD8+ HPBALL cells, VHH-Fc at 10 µg/mL, detected with ALEXA FLUOR 647 goat anti-human IgG Fc; HEK cells as non-CD8 control.
Experiment [3] has the same target. In words: FACS on HPBALL cells, 10 µg/mL, anti-human IgG Fc AF647 detection.
The target is the same in experiment [4]. The experiment in a line: flow cytometry on human whole blood and PBMCs, AF647-labeled VHH at 20 ng/mL. (In general: Flow cytometry measures light scatter and fluorescence of single cells or particles in a stream.)

B1: 2C8 VHH fused to a C-terminal huIgG1 Fc (Fc fusion, not shown: a dimerising Fc or GST)
chain: EVQLVESGGGLVQAGGSLRLSCAASGFTFDDYAIGWFRQAPGKGREGVLCIRIFDRHTYSADSVKGRFTISSDNAQNTVYLHMNSLKPEDTAVYYCAAGSFWACTRPEGAMDYWGKGTQVTVSS
Consider B1, for which the binding entry in experiment [1], in experiment [2] and in experiment [3] was “binds” in each case.

B2: 2C8 VHH, His-tagged monomer directly labeled with ALEXA FLUOR 647 (VHH, not shown: small tags and cut ends)
VHH: EVQLVESGGGLVQAGGSLRLSCAASGFTFDDYAIGWFRQAPGKGREGVLCIRIFDRHTYSADSVKGRFTISSDNAQNTVYLHMNSLKPEDTAVYYCAAGSFWACTRPEGAMDYWGKGTQVTVSS
modifications: ALEXA FLUOR 647 dye conjugated by EDC-NHS; sites not stated
B2: the binding result in experiment [4] is “binds”.
